According to the supplement of paper PMC5949888:
± gives the standard deviation of the averaged measurements. Most values lie at the floor of the assay. Slopes are relative: functional sequences can read slightly below zero.

test system: Saccharomyces cerevisiae PS128 hsf1 delta, HSF1(1-493) fusion; assay: growth estimate (transactivation domain function in HSF1 fusion, heat-shock survival) (a.u. (slope of normalised read count over time)); higher = stronger growth at 37°C, i.e. more transactivation activity; details: library: random library

| Substance | growth estimate |
| --- | --- |
| EVDGPRQFNLG | < -0.25 |
| YHDN | < -0.25 |
| VCESATEVEN | < -0.25 |
| DRKVR | < -0.25 |
| RTILVNILCVGALHPGVTYA | < -0.25 |
| CQAGKITCVTDIGQLFCGKN | < -0.25 |
| DYRALRK | < -0.25 |
| FCMRSRRGRGTRAK | < -0.25 |
| PGNWYYELVGRGSHRPNALA | < -0.25 |
| RLNCQRHSS | < -0.25 |
| TLVNFLGMGAYPADVAGPGT | < -0.25 |
| LHHIFVLYGRAKLITFASVG | < -0.25 |
| VIHTWKLDFGGVIEQLRGLR | < -0.25 |
| PIPR | < -0.25 |
| CTCQVEL | < -0.25 |
| FLLGDQARTHMGLIRS | < -0.25 |
| TFQSRRLVLTNGSS | < -0.25 |
| SAGVSCEIV | < -0.25 |
| YLSANVIQRIQFSRPLPSQG | < -0.25 |
| IDWRASRLALYFKETLHRHN | < -0.25 |
| LGLP | < -0.25 |
| VFDLVPGNPATE | < -0.25 |
| TFSKL | < -0.25 |

| Substance | growth estimate |
| --- | --- |
| DMYGEFVIHGSGTFIRKRVR | < -0.25 |
| RSVSVGSDLFCGVRPTSVFA | < -0.25 |
| TDAAVQFSGE | -0.237 |
| TAWGRWHSTCRWTLGYCQVT | < -0.25 |
| REWSQTL | < -0.25 |
| AHHQGGAGQNCVGSGCSAIR | -0.237 |
| RVGLRGSNPRV | < -0.25 |
| RFHQLRTLSTWDVAQVPSEP | < -0.25 |
| ARLLVTITNKGPDRTSESDG | < -0.25 |
| CEL | < -0.25 |
| YVPMTHHGLGASVRKGKRYA | -0.246 |
| LGFVGFRGYVVRRLLRAGYL | < -0.25 |
| IDSMGCERLPVPLACITILT | < -0.25 |
| NHSKDPVKVGLHSKAL | < -0.25 |
| PEPCVVSSPKIGSRCKTSPR | < -0.25 |
| AVAAVV | < -0.25 |
| PVRLSWTGMISKRKL | < -0.25 |
| YDVRCRSAIMGPC | -0.246 |
| VICISAHRVEFNVRDSILGE | < -0.25 |
| RLSGSEVALRVWGGN | < -0.25 |
| WITVCELRLLEAKVSLPTRA | < -0.25 |
| DRVRVGVPAGSTAASP | < -0.25 |
| KIHVAPN | < -0.25 |

| Substance | growth estimate |
| --- | --- |
| IWVRVQEMSTD | < -0.25 |
| PKQTWAPLGHRKKDTFSKAV | < -0.25 |
| GTVSSIRDEYVMRETRGVKS | < -0.25 |
| LNRGLWVWCTPAPPGFHPSP | < -0.25 |
| NLGDRDKPRLRRSRSMPIRT | < -0.25 |
| YPGQ | < -0.25 |
| LLSNRG | < -0.25 |
| HSLMRPS | < -0.25 |
| PVGYFIHRVTFLARARWFRP | < -0.25 |
| VLP | -0.0333 ± 0.31 |
| NLSGTNHCA | < -0.25 |
| GWKVRALFFHTNAKS | < -0.25 |
| RARHESTLIPGGNSP | < -0.25 |
| LVSKRWFNV | < -0.25 |
| RRHNETQQYDIFAGQTSYGR | < -0.25 |
| KIT | < -0.25 |
| HGKVVRFHLVVDTRNAMVLT | < -0.25 |
| FTDRLKGRGFSRANVVKDFG | < -0.25 |
| MRSGLLRASQLVRTGSMEGH | < -0.25 |
| HCCPK | < -0.25 |
| PPSDRIESSV | < -0.25 |
| PGNGRIWLGYYHEGLRLVRN | < -0.25 |
| QGRERGEFPRRL | < -0.25 |

3 entries from above, with bars between the fields.
Substance | growth estimate
NLGDRDKPRLRRSRSMPIRT | < -0.25
YPGQ | < -0.25
LLSNRG | < -0.25

Further results follow:

| Substance | growth estimate |
| --- | --- |
| LPIGLISLLGPVLGTCCRTV | < -0.25 |
| RLPLVGLGLLISRTLVIVAM | < -0.25 |
| YGCEAS | < -0.25 |
| RSRRNRIRVHTQNTFPLT | < -0.25 |
| STGGQPKRDDLT | < -0.25 |
| IPGWTESWAEKRPRFRTVSC | < -0.25 |
| AFDRSLRYRELLERCNRLKM | < -0.25 |
| RSLAWREPWKHVSLVLSPPG | < -0.25 |
| IIPKLNNVEVREYRRFLGSL | -0.241 |
| LSRTCQTPSSCGPTGSPISP | < -0.25 |
| DVVGLESSEQNLNRVRECTI | < -0.25 |
| VSHLL | < -0.25 |
| RSSRLGQR | < -0.25 |
| SPLESGSGLGSWVDSIPHTA | < -0.25 |
| KCSLKLGHWTQ | -0.25 |
| NELPGVTCLCPVPQSISAGH | < -0.25 |
| VITSEYVMLE | < -0.25 |
| MRGRMEVETTI | < -0.25 |
| REPFRTNIAEGACMPKSCTG | < -0.25 |
| VCRTRRTWV | < -0.25 |
| LGRRSIRLGSGCG | < -0.25 |
| YGGHSTN | < -0.25 |
| LTQKWAKRGWLLRHGQSTYR | < -0.25 |

Some of the entries so far, with bars between the fields.
Substance | growth estimate
IWVRVQEMSTD | < -0.25
PKQTWAPLGHRKKDTFSKAV | < -0.25
GTVSSIRDEYVMRETRGVKS | < -0.25
LNRGLWVWCTPAPPGFHPSP | < -0.25
NLGDRDKPRLRRSRSMPIRT | < -0.25
YPGQ | < -0.25
LLSNRG | < -0.25
HSLMRPS | < -0.25
PVGYFIHRVTFLARARWFRP | < -0.25
VLP | -0.0333 ± 0.31
NLSGTNHCA | < -0.25
GWKVRALFFHTNAKS | < -0.25
RARHESTLIPGGNSP | < -0.25
LVSKRWFNV | < -0.25
RRHNETQQYDIFAGQTSYGR | < -0.25
KIT | < -0.25
HGKVVRFHLVVDTRNAMVLT | < -0.25
FTDRLKGRGFSRANVVKDFG | < -0.25
MRSGLLRASQLVRTGSMEGH | < -0.25
HCCPK | < -0.25
PPSDRIESSV | < -0.25
PGNGRIWLGYYHEGLRLVRN | < -0.25
QGRERGEFPRRL | < -0.25
LPIGLISLLGPVLGTCCRTV | < -0.25
RLPLVGLGLLISRTLVIVAM | < -0.25
YGCEAS | < -0.25
RSRRNRIRVHTQNTFPLT | < -0.25
STGGQPKRDDLT | < -0.25
IPGWTESWAEKRPRFRTVSC | < -0.25
AFDRSLRYRELLERCNRLKM | < -0.25
RSLAWREPWKHVSLVLSPPG | < -0.25
IIPKLNNVEVREYRRFLGSL | -0.241
LSRTCQTPSSCGPTGSPISP | < -0.25
DVVGLESSEQNLNRVRECTI | < -0.25
VSHLL | < -0.25
RSSRLGQR | < -0.25
SPLESGSGLGSWVDSIPHTA | < -0.25

Following part.

| Substance | growth estimate |
| --- | --- |
| GVYFIRMCETHVSCLEALRC | < -0.25 |
| YKPSCFKISFPTTPLWHNQA | < -0.25 |
| SKCPLFQSYVLSGVRTGGRV | < -0.25 |
| ADAVINGCTLERIVLSQRGS | < -0.25 |
| KTSASRYVRGRSYQCGSFLP | < -0.25 |
| PASSSTHIRLRPPRC | -0.231 |
| TECLSIET | < -0.25 |
| RRFKPEVSFLGCNGTV | -0.185 |
| GLGNRQF | -0.0161 |
| LLLAFHI | < -0.25 |
| SNSRTGLVVTSSS | < -0.25 |
| AHWCGPCRARTPTRPARSYD | < -0.25 |
| DWVT | < -0.25 |
| VAISVPLQLSCIE | < -0.25 |
| YAGAKL | < -0.25 |
| DKVSSGDADGRRGHRFLRGI | < -0.25 |
| FYSMYQQCESACRGLTVRAN | < -0.25 |
| SRDL | < -0.25 |
| CLLEQDGPNTLDFSWVNCPA | -0.245 |
| RVYASRCPT | < -0.25 |
| QHRT | < -0.25 |
| QRCSNARSPSRRP | < -0.25 |
| RGYFFEYSWGSRHVEEPRRV | < -0.25 |

| Substance | growth estimate |
| --- | --- |
| PGVIVRYPRREFNIYGQLTE | < -0.25 |
| ASGGVTRIKYKAH | < -0.25 |
| VMKTQVPFVRGFVV | < -0.25 |
| FRSLVDLSHRSNLIAPMRIT | < -0.25 |
| IGGTRLTIVGLSFV | < -0.25 |
| VCVRRAPQQVMRNSEGSRSR | < -0.25 |
| GIPDTERQISPGLFTYAQTR | < -0.25 |
| SSPGNMF | < -0.25 |
| FNPIITGIHGVPNCYCGGLT | < -0.25 |
| SCVGPEARDADPQRSCHCTL | < -0.25 |
| AAES | < -0.25 |
| WNRNCLRRVLVRSIG | < -0.25 |
| HNGFGFPVVRLNPVALIMCR | < -0.25 |
| GGGSSAKTSTIGQCFDTRQD | < -0.25 |
| RSCRARAGIAVYADSRGNVG | < -0.25 |
| YIRS | < -0.25 |
| LRNKS | < -0.25 |
| SERYRDVCRRVVKSFHSSRR | < -0.25 |
| IAWSLS | < -0.25 |
| TRDVIYS | < -0.25 |
| ILGQAFAHPSVRLNSVFPAG | < -0.25 |
| TMDADMEKHSGISDDFWAQN | < -0.25 |
| IPVNKNA | < -0.25 |

| Substance | growth estimate |
| --- | --- |
| LRGQWSFDYYLRMIGRPERS | < -0.25 |
| NSRENKLFAHLELDIAAPTI | < -0.25 |
| SLGCIAQLLVDSYVVSTEYV | < -0.25 |
| RHGHVHQAARCSWLRLVRIW | < -0.25 |
| LSCLAVRGWMMDKRELLEVV | < -0.25 |
| VVRGAYIVTMVTIKCFRWRI | < -0.25 |
| ARCLAVSRDNHAWGRSQPNK | < -0.25 |
| CVPASELGPGPASISTVIRD | < -0.25 |
| LWSNLYGLNLVTSRVYSIWY | < -0.25 |
| IRC | < -0.25 |
| ISLSKGHE | < -0.25 |
| MPNTKYWRIGPAKV | < -0.25 |
| RPGISTRVSNSWLRPLISEV | < -0.25 |
| MQLYHAGIQAHLPKCMSTLG | < -0.25 |
| WYLSDPVWTSS | -0.205 |
| TGFLVALYH | < -0.25 |
| EWTDYYMLPRW | < -0.25 |
| CCRNRGLSETSSADCTECRP | < -0.25 |
| ATKACGGSRFPTRIKAREAS | < -0.25 |
| KNLRLVTVLRHL | < -0.25 |
